Experimental data reported in article PMC11523043.
These are yes or no findings as the source states them, for the method shown. Binding seen in cells or lysates may run through a third protein. Some entries that bind do so weakly or less than the wild type. Where a sequence is shown, tags or fusion partners need not be part of it.

Chains of the proteins cited; added tags and fusions are not shown.
UniProt Q8IZL8: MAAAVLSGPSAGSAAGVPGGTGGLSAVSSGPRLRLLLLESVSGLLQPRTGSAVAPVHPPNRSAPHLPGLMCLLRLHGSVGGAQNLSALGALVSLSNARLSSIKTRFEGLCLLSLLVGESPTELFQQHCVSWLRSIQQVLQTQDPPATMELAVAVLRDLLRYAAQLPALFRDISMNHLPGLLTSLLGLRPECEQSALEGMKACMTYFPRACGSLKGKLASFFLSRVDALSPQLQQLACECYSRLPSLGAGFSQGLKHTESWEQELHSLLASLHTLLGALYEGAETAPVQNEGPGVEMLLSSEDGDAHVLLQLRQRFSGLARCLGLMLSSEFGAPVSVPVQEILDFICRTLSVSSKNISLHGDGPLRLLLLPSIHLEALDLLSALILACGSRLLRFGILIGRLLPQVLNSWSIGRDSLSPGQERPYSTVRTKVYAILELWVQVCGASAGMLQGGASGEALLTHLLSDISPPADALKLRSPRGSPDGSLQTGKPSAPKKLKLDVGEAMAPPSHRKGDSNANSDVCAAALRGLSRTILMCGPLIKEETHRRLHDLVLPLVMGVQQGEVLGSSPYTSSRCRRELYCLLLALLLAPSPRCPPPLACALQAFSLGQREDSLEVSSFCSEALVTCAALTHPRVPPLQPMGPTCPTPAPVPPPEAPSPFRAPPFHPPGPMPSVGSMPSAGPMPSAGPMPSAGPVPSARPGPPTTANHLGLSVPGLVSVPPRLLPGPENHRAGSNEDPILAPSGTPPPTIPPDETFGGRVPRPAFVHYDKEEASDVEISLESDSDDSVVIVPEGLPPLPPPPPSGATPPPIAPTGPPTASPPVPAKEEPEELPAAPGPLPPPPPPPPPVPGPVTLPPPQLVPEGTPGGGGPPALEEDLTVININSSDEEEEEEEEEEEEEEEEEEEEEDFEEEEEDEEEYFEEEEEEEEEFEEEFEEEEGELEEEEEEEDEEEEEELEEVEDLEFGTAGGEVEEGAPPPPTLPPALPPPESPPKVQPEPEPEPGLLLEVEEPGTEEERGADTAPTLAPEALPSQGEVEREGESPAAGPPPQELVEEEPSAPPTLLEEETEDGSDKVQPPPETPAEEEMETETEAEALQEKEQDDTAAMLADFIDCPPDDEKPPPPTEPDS
UniProt Q9H4L4: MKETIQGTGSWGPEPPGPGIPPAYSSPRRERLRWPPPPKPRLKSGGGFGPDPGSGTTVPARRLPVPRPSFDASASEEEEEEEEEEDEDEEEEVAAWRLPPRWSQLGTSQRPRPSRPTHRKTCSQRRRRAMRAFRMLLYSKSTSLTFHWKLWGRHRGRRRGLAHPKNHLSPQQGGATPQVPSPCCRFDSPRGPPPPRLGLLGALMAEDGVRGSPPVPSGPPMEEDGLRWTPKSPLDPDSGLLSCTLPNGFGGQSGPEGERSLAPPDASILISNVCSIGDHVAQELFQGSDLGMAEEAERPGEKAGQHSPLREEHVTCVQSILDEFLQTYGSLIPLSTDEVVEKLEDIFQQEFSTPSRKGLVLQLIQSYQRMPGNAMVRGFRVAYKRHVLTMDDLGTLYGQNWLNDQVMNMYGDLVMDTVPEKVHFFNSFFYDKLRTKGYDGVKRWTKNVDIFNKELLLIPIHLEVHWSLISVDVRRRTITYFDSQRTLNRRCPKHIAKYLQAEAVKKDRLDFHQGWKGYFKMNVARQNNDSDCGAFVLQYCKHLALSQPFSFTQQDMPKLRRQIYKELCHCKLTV

Target: T1, Flag-tagged USP36 (UniProt Q9P275)
T1 sequence: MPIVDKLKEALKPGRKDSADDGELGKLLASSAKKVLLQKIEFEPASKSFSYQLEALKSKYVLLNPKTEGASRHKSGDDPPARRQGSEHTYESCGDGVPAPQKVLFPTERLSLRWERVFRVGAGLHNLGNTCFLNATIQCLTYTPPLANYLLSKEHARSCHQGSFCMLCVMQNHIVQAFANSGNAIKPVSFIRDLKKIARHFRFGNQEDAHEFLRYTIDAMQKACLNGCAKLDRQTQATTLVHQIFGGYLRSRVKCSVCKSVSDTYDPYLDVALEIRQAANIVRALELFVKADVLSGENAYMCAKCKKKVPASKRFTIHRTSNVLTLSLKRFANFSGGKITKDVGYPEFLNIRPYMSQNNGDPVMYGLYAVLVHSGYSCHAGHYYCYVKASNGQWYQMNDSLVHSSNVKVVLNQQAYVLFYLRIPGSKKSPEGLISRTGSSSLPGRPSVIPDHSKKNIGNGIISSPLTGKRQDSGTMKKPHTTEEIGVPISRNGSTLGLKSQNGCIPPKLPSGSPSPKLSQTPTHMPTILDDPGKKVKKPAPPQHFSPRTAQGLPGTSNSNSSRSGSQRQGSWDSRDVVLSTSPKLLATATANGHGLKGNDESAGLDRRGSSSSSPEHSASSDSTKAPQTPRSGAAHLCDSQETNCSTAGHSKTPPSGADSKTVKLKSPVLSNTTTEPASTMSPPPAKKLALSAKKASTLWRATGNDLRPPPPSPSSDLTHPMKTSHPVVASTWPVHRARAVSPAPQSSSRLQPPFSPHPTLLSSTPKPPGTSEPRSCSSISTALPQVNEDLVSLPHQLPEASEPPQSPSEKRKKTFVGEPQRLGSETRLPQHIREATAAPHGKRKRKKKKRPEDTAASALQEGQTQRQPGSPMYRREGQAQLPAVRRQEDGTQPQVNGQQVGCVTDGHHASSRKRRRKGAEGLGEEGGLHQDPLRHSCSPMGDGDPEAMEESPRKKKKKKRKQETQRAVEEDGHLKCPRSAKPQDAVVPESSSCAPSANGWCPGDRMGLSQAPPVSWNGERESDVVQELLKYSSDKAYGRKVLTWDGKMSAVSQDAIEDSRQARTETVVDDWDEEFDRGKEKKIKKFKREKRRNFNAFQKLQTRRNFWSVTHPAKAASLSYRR
Assay: co-IP; Co-IP experiments of Supplementary Fig. S4; cells and bait not given

| binding | Substance |
| --- | --- |
| binds | Pelp1 (from UniProt Q8IZL8 1-1130) |
| binds | SENP3 (from UniProt Q9H4L4 1-574) (enzyme) |
